A number of entries come with more than one value. The list is limited to them. There may be further records. Values that stand side by side differ for a reason that is not stated; they may come from other doses, times, organisms or constructs than stated.

The assay deals with IFN production in THP1 TREX1 KO cells. Briefly: Cellular assay for altering IFN production in THP1 TREX1 KO cells. The note with it: read-out: IFN EC50; inducers of IFN; in the presence of 1 μM 5-aza-2′-deoxycytidine, five days. On the procedure:
THP1-Dual™ KO-TREX1 cells were purchased from Invivogen (cat #thpd-kotrex). The THP1-Dual™ KO-TREX1 cells were cultured in RPMI 1640, 10% heat-inactivated fetal bovine serum, 25 mM HEPES, 10 μg/mL Blasticidin, and […] Zeocin. THP1-Dual™ KO-TREX cells were treated with a dose titration of test compound in the presence of 1 μM 5-aza-2′-deoxycytidine (Sigma, cat #189825). Type 1 Interferon and cell viability were assessed after five days of treatment.
Stock solution of test compound was prepared in DMSO followed by a three-fold dilution in DMSO. Additional 50× dilution was prepared in cell culture media for each dilution. 10 μL of diluted test compound was then added to a 384-well plate.
THP1-Dual™ KO-TREX1 cells were treated with 1 μM 5-aza-2′-deoxycytidine. THP1-Dual™ KO-TREX1 cells (50 μL) were added to each well of the 384-well plate containing test compound titration at 10,000 cells/well. Cells were incubated at 37° C., 5% CO2 in a humidified incubator for five days. On day five, 20 μL of cell supernatant was transferred to a 384-well, white-walled plate, followed by addition to each well of 50 μL of QUANTI-LUC solution containing stabilizer. Luminescence was detected on a plate reader according to manufacturer's instructions. […]

As for `C#C[C@]1(COP(=O)(N[C@@H](C)C(=O)OCc2ccccc2)Oc2ccccc2)O[C@@H](n2cnc3c(N)nc(F)nc32)C[C@@H]1O` (stereo partly shown), the EC50 is < 1 µM and > 10 µM.

One may read the EC50 as the concentration giving half of the maximal effect.

Source of the values: US20240366649A1, “4-ETHYNYL-3-HYDROXY-TETRAHYDROFURANYL-ADENINE PHOSPHORAMIDATES AND RELATED COMPOUNDS AND THEIR USE IN TREATING MEDICAL CONDITIONS” (ROME THERAPEUTICS, INC., priority 2021, published 2024).
